Measured values reported in PubChem BioAssay AID540276 (National Center for Advancing Translational Sciences (NCATS), 2011).
Hit rate of the full screen: of about 300,000 compounds, about 5,400 (1.8%) were called active. This list was built around the results that the source calls inconclusive (neither active nor inactive); the mix of calls is not that of the screen. Calls come from the whole dose curve; tested in HEK293 cells. Potencies of inconclusive entries are doubtful fits and often do not repeat.

Assay: qHTS for inhibitors of binding or entry into cells for Marburg Virus
Settings: Marburg virus pseudotyped entry inhibition, cell reporter; series mostly up to 37.8 µM
Potency is the fitted concentration of half-maximal effect.

Row | SMILES | Potency
1 | CC(C)Cc1nc2oc3c(=O)[nH]cnc3c2c2c1CCC2 | inconclusive: 20 µM [inhibitor, single point]
2 | COc1ccc(/C=C/C(=O)c2sc(-c3ccc(Cl)cc3)nc2C)cc1 | inactive
3 | CC(=O)N1c2ccccc2CCc2ccc(N)cc21 | inconclusive: 22.4 µM [inhibitor, partial curve, poor fit]
4 | Cc1cc(N2CCCCC2)nc2ccc(NC(=O)CCC(=O)N3CCN(c4cccc(Cl)c4)CC3)cc12 | inconclusive: 12.6 µM [inhibitor, partial curve, poor fit]
5 | Cc1cc(C)c2nc(SCC(=O)Nc3cc(C)on3)c(C)cc2c1 | inconclusive: 4.47 µM [inhibitor, full curve, poor fit]
6 | O=C(CC(c1ccccc1)c1ccccc1)NCCO | inactive
7 | O=C(Nc1c(Cl)cc2c(c1Cl)Cc1cc([N+](=O)[O-])ccc1-2)C(Cl)Cl | inconclusive: 25.1 µM [inhibitor, single point]
8 | CCOC(=O)c1sc(N2C(=O)c3oc4ccc(F)cc4c(=O)c3C2c2cccc(OC)c2)nc1C (stereo not given) | inconclusive: 3.55 µM [activator, full curve, poor fit]
9 | CC(=O)c1c(C)[nH]c(C(=O)Nc2cccnc2)c1C | inactive
10 | COc1cc(OC)cc(C(=O)N[C@H](C(=O)Nc2nc3ccccc3[nH]2)C(C)C)c1 | inconclusive: 1.58 µM [inhibitor, partial curve, poor fit]
11 | COc1ccc(OC)c(N(CC(=O)Nc2ccccc2F)S(=O)(=O)c2ccccc2)c1 | inconclusive: 35.5 µM [inhibitor, single point]
12 | CCOC(=O)C(C)Sc1nc2c(cnn2-c2ccc(F)cc2)c(=O)[nH]1 (stereo not given) | inconclusive: 3.16 µM [inhibitor, partial curve, poor fit]
13 | CCOc1ccc(-n2c(O)c(C=Nc3ccc(N(CC)CC)cc3)c(=O)[nH]c2=O)cc1 | inconclusive: 0.164 µM [activator, full curve, poor fit]
14 | Cc1ccc(C(=O)NC(=S)Nc2ccc(N3CCN(C(=O)c4ccco4)CC3)cc2)cc1 | inactive
15 | N/C(=N\OC(=O)c1ccc(Br)cc1)c1ccncc1 | inconclusive: 0.562 µM [activator, full curve, poor fit]
16 | COc1cccc(C(=O)c2sc(Nc3ccc(C)cc3C)c(S(=O)(=O)c3ccccc3)c2N)c1 | inconclusive: 11.2 µM [inhibitor, single point]
17 | COC(=O)C1CN(C(=O)COc2ccc(Cl)cc2C)c2ccccc2O1 (stereo not given) | inactive
18 | COc1cccc(CNC(=O)C2CCN(Cc3cnn(-c4ccccc4)c3-n3cccc3)CC2)c1 | inconclusive: 22.4 µM [inhibitor, partial curve, poor fit]
19 | CC1(C)Cc2c(cnn2-c2ccc(F)cc2)C(NC(=O)C2CCC2)C1 (stereo not given) | inconclusive: 35.5 µM [inhibitor, single point]
20 | CCOC(=O)c1sc2nc(C)nc(NCc3ccccc3OC)c2c1C | inconclusive: 10 µM [activator, partial curve, poor fit]

Row | SMILES | Potency
21 | COc1ccc2nc(Nc3nc(C)c(C(C)=O)s3)sc2c1 | inconclusive: 31.6 µM [inhibitor, single point]
22 | C/C(=N/NC(=O)CNC(=O)COc1ccccc1)c1ccco1 | inconclusive: 2.51 µM [activator, single point]
23 | N#CC1C(C#N)N2CCCN2C1c1ccc(Cl)cc1 (stereo not given) | inactive
24 | Cc1ccc2c(Cl)cc(Cl)c(OCC(=O)Nc3cccc(S(N)(=O)=O)c3)c2n1 | inconclusive: 12.6 µM [inhibitor, partial curve, poor fit]
25 | Cc1ccc(-c2cc(C(=O)NCC3CCCO3)no2)cc1 (stereo not given) | inconclusive: 6.51 µM [activator, single point]
26 | COc1cccc(-c2cc(C(=O)N3CC4(C)CC3CC(C)(C)C4)no2)c1 (stereo not given) | inconclusive: 29.1 µM [inhibitor, single point]
27 | CN1/C(=C/C(=O)c2cccs2)Sc2ccccc21 | inactive
28 | COc1ccc(C2CC(=O)c3c([nH]c(C(=O)OC4CCCC4)c3C)C2)cc1OC (stereo not given) | inconclusive: 12.6 µM [activator, single point]
29 | Cc1c(Cc2c(Cl)cccc2Cl)c(=O)ccn1C(C)c1ccccc1 (stereo not given) | inconclusive: 0.282 µM [inhibitor, full curve, poor fit]
30 | CN1CC2([N+](=O)[O-])CC=C(OCCO)C([N+](=O)[O-])(C1)C2 (stereo not given) | inconclusive: 9.2 µM [activator, partial curve, poor fit]
31 | Cc1cccc(N=Nc2c(C)c(C#N)c(O)[nH]c2=O)c1 | inconclusive: 35.5 µM [activator, single point]
32 | CCOc1cc2[nH]c(=O)n(Cc3ccc(C(=O)NCCCN4CCC(C)CC4)cc3)c(=O)c2cc1OCC | inconclusive: 35.5 µM [inhibitor, single point]
33 | Cc1cccc(NC(=S)NNC(=S)NCc2ccccc2)c1 | inconclusive: 5.17 µM [activator, single point]
34 | COc1ccc(/C=N\NC(=O)C2=NNC(=O)C2C)cc1 (stereo not given) | inconclusive: 4.47 µM [activator, single point]
35 | CCOc1ccc(OCC)c(NC(=O)CN(c2ccc(C)cc2)S(=O)(=O)c2c(C)n[nH]c2C)c1 | inconclusive: 25.1 µM [inhibitor, single point]
36 | CCOc1ccc(NC(=O)C(CC)n2nc(-c3ccc(C)c(C)c3)ccc2=O)cc1 (stereo not given) | inactive
37 | CC(=O)NC(c1ccccc1)c1c(O)ccc2ccccc12 (stereo not given) | inconclusive: 0.562 µM [inhibitor, full curve, poor fit]
38 | Cc1cc(C)c(C(=O)NC2CC(C)(C)Cc3c2cnn3-c2cccc(F)c2)[nH]1 (stereo not given) | inconclusive: 11.2 µM [inhibitor, partial curve, poor fit]
39 | CO/N=C/CC(=O)c1ccc(OC)cc1 | inconclusive: 2.82 µM [inhibitor, single point]
40 | CC1(C)Cc2c(sc(NC(=O)COc3cccc4ccccc34)c2C#N)C(C)(C)N1 | inconclusive: 22.4 µM [inhibitor, single point]

Not a retest: an excerpt of the list.
Row | SMILES | Potency
21 | COc1ccc2nc(Nc3nc(C)c(C(C)=O)s3)sc2c1 | inconclusive: 31.6 µM [inhibitor, single point]
22 | C/C(=N/NC(=O)CNC(=O)COc1ccccc1)c1ccco1 | inconclusive: 2.51 µM [activator, single point]
23 | N#CC1C(C#N)N2CCCN2C1c1ccc(Cl)cc1 (stereo not given) | inactive
